Measured values: PMC8453168
Results are given in words; binding and its absence hold for the method and conditions named. Binding seen in cells or lysates may run through a third protein. Some results given as binding are weak or reduced against the parent protein; the word gives no strength.

Target: T1, PTPRN (tyrosine phosphatase receptor type N), in U87 cells (human) (UniProt Q16849)
T1 sequence: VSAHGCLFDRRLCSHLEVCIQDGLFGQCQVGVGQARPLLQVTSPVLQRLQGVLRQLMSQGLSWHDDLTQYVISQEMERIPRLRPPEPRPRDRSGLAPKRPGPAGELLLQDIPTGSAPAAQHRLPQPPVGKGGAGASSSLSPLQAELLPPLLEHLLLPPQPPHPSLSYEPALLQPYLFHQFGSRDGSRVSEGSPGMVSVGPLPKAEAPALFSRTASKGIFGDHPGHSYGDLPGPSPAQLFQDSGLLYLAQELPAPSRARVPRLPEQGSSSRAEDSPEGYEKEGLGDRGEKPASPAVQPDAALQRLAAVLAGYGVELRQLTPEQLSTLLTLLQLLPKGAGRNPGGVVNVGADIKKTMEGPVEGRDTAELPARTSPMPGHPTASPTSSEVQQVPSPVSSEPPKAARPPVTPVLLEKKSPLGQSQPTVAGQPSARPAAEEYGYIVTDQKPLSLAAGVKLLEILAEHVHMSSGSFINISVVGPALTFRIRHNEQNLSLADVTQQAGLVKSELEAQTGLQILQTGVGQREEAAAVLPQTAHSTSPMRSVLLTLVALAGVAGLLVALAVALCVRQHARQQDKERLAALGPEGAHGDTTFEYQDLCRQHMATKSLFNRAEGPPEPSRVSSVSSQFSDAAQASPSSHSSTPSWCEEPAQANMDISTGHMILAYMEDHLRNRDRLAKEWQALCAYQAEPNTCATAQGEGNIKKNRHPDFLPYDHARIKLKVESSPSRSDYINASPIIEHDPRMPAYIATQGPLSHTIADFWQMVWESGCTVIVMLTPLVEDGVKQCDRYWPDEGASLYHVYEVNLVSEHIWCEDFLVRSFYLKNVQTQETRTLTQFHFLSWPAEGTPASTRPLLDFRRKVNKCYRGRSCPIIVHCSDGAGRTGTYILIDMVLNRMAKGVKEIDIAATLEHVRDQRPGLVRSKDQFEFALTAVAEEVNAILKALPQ
Assay: co-IP; immunoprecipitation (anti-FLAG) from lysate of transfected U87 cells (20 mM Tris-HCl pH 8, 137 mM NaCl, 0.5% Triton X-100, 2 mM EDTA, 4°C), western blot

“Heat shock protein 90 alpha family class A member 1 (HSP90AA1), endogenous in U87 cells (from UniProt P07900 1-732)” was tested, and the binding was “binds”.
